This test has as its target T1, Strep-tag-Chs2-215-629 (budding yeast) (UniProt P14180).
T1 sequence: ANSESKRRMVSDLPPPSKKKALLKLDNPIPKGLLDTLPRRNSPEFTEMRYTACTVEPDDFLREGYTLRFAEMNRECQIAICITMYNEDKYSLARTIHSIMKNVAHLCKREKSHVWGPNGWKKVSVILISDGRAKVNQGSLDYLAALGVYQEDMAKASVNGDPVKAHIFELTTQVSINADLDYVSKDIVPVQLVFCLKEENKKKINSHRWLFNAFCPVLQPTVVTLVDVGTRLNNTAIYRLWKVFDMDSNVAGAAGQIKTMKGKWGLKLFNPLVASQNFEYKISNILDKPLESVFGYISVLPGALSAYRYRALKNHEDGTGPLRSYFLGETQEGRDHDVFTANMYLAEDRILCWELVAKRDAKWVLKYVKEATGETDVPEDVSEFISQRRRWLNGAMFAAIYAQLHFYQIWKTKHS
In words: pull-down; pairs of IPTG-induced E. coli cultures expressing the two tagged proteins were mixed and putative complexes purified following the scheme in S1A; final purified fractions analysed by SDS-PAGE and immunoblotting with anti-Streptag or anti-His antibodies. (In general: In western blotting, separated proteins are transferred to a membrane and probed.)

These are yes or no findings as the source states them, for the method shown. Binding seen in cells or lysates may run through a third protein. Some binding calls cover weakened binding; strength is not graded here. Sequences can lack the tags named with a protein.

B1: 6His-tagged-Inn1-C2 (domain or fragment, UniProt P53901 1-114)
chain: MSEEVWNGNQGILSVYVSKARDLPNLNKLDKQNVMLRLRIAHMTRASNTLHRAGQNPVFHYLEKFDITPEIKPLMYVEVYCDRRKKSPLPIGRCEIDLLNAIRADPKEGYCTWY
For the molecule B1, the binding entry was “binds”.

The values are drawn from article PMC4824347.
